Reference: publication PMC10477481, “Chlorotoxin binds to both matrix metalloproteinase 2 and neuropilin 1” (The Journal of Biological Chemistry, 2023)
No constants are given. Whether binding was seen depends on the method and setting.

By UniProt entry, the sequences of proteins in these tests, tags left out. Residues count along the entry.
UniProt P02768, residues 25-609: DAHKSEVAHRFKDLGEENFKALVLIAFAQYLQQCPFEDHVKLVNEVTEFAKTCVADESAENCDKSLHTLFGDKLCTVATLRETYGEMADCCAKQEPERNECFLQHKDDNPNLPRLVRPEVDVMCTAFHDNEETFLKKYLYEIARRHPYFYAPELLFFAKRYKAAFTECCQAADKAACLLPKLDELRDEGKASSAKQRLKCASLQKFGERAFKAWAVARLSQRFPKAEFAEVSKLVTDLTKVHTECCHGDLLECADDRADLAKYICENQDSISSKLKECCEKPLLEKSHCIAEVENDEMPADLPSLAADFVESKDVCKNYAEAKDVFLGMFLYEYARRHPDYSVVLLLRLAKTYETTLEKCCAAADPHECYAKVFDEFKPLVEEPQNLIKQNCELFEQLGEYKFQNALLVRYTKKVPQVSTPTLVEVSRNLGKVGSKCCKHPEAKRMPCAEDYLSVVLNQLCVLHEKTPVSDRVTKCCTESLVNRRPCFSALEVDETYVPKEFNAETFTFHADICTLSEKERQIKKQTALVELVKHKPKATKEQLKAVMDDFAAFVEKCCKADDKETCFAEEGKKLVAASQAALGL
UniProt P03952, residues 20-638: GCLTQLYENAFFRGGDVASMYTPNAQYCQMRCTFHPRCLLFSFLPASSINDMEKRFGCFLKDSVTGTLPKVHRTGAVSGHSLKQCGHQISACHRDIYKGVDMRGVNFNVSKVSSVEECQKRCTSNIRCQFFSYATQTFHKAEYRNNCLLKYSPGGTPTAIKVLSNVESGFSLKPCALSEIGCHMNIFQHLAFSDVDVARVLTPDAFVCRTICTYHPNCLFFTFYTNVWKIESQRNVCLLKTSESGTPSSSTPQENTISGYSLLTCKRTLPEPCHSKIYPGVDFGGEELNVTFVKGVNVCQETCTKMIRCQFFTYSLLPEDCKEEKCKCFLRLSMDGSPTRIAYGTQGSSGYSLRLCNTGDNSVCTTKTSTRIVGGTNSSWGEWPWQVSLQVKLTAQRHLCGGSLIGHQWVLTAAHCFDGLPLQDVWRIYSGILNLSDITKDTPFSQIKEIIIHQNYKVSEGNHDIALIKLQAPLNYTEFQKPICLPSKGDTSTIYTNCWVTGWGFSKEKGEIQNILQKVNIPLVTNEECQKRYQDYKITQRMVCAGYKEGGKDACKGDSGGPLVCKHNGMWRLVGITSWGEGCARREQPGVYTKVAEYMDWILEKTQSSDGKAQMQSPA
UniProt P45639: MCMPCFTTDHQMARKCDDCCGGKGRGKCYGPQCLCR

Columns and labels:
[1] = target: human serum albumin, C-terminal His tag (Abcam ab217817) (human) (UniProt P02768); assay: flow cytometry of protein-coated microbeads (cobalt-coated bead test with phages); only the target purified
[2] = target: recombinant human plasma kallikrein/KLKB1, C-terminal His tag (human) (UniProt P03952); assay: as above
[3] = target: human serum albumin, C-terminal His tag (Abcam ab217817) (human) (UniProt P02768); assay: flow cytometry of protein-coated microbeads (cobalt-coated bead test); both purified

CTX-displaying phage (CTX fused to the P3 coat protein of M13) (from UniProt P45639 1-36)
binding [1]: no binding (tested: 5.5 × 10^14 particles/ml)
binding [2]: no binding (tested: 6 × 10^14 particle/ml)

cyanine 5-labeled chlorotoxin (from UniProt P45639 1-36) (peptide)
binding [3]: no binding (tested: 1 μM CTX-Cy5)
